Values of other authors as cited in patent US20250295634A1, “USE OF ANTIANDROGENS TO TREAT SEPSIS” (Rhode Island Hospital, priority 2024, published 2025).
At least one compound was matched to its structure with a doubt left.

Experiments:
COVID-19 [1] = conditions: hospitalized COVID-19 patients; fifteen days with placebo; cited from earlier work
COVID-19 [2] = conditions: patients requiring mechanical ventilation; cited from earlier work
TMPRSS2 = conditions: cited from earlier work

In the case of `CCC(CC)COC(=O)[C@H](C)N[P@](=O)(OC[C@H]1O[C@@](C#N)(c2ccc3c(N)ncnn23)[C@H](O)[C@@H]1O)Oc1ccccc1` [Remdesivir], the “median time to recovery” value (COVID-19 [1]) is listed as “ten”.
For `C[C@@H]1C[C@H]2[C@@H]3CCC4=CC(=O)C=C[C@]4(C)[C@@]3(F)[C@@H](O)C[C@]2(C)[C@@]1(O)C(=O)CO` [dexamethasone], the “mortality compared to placebo” value (COVID-19 [2]) is listed as “reduce mortality”.
In the case of `C[C@]12CC[C@@H]3c4ccc(O)cc4CC[C@H]3[C@@H]1CC[C@@H]2O` [estradiol], the TMPRSS2 regulation (TMPRSS2) is given as “significantly downregulated TMPRSS2”.
